This passage reports binding results from paper PMC7562701.

No constants are given. Whether binding was seen depends on the method and setting. In cells and extracts the contact can be indirect. Some results given as binding are weak or reduced against the parent protein; the word gives no strength. Where a sequence is shown, tags or fusion partners need not be part of it.

For assay [1], the target named is T1, flag-RhoE (human) (UniProt P61587).
T1 sequence: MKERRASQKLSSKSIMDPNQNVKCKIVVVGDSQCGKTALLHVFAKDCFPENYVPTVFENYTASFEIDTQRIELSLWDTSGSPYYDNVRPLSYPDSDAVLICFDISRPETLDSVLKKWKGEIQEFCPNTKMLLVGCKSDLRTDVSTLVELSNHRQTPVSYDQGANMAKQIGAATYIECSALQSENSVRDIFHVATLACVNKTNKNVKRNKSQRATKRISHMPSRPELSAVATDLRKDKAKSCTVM
In words: co-IP; HEK293 cells transfected with indicated plasmids; lysates 24 h after transfection; precipitated with anti-flag antibody.

For assay [2], the target named is T2, flag-RhoEα (human) (UniProt P61587).
T2 sequence: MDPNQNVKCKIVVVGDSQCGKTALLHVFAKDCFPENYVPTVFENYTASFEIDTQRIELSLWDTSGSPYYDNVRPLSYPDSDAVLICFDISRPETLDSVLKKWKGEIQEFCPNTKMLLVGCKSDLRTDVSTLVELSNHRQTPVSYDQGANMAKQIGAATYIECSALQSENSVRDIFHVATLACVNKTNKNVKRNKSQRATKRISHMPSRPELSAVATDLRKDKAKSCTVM
The assay is described as above.

B1: p190RhoGAP (protein, UniProt Q9NRY4 1-1499)
chain: MMMARKQDVRIPTYNISVVGLSGTEKEKGQCGIGKSCLCNRFVRPSADEFHLDHTSVLSTSDFGGRVVNNDHFLYWGEVSRSLEDCVECKMHIVEQTEFIDDQTFQPHRSTALQPYIKRAAATKLASAEKLMYFCTDQLGLEQDFEQKQMPDGKLLVDGFLLGIDVSRGMNRNFDDQLKFVSNLYNQLAKTKKPIVVVLTKCDEGVERYIRDAHTFALSKKNLQVVETSARSNVNVDLAFSTLVQLIDKSRGKTKIIPYFEALKQQSQQIATAKDKYEWLVSRIVKNHNENWLSVSRKMQASPEYQDYVYLEGTQKAKKLFLQHIHRLKHEHIERRRKLYLAALPLAFEALIPNLDEIDHLSCIKAKKLLETKPEFLKWFVVLEETPWDATSHIDNMENERIPFDLMDTVPAEQLYEAHLEKLRNERKRVEMRRAFKENLETSPFITPGKPWEEARSFIMNEDFYQWLEESVYMDIYGKHQKQIIDKAKEEFQELLLEYSELFYELELDAKPSKEKMGVIQDVLGEEQRFKALQKLQAERDALILKHIHFVYHPTKETCPSCPACVDAKIEHLISSRFIRPSDRNQKNSLSDPNIDRINLVILGKDGLARELANEIRALCTNDDKYVIDGKMYELSLRPIEGNVRLPVNSFQTPTFQPHGCLCLYNSKESLSYVVESIEKSRESTLGRRDNHLVHLPLTLILVNKRGDTSGETLHSLIQQGQQIASKLQCVFLDPASAGIGYGRNINEKQISQVLKGLLDSKRNLNLVSSTASIKDLADVDLRIVMCLMCGDPFSADDILFPVLQSQTCKSSHCGSNNSVLLELPIGLHKKRIELSVLSYHSSFSIRKSRLVHGYIVFYSAKRKASLAMLRAFLCEVQDIIPIQLVALTDGAVDVLDNDLSREQLTEGEEIAQEIDGRFTSIPCSQPQHKLEIFHPFFKDVVEKKNIIEATHMYDNAAEACSTTEEVFNSPRAGSPLCNSNLQDSEEDIEPSYSLFREDTSLPSLSKDHSKLSMELEGNDGLSFIMSNFESKLNNKVPPPVKPKPPVHFEITKGDLSYLDQGHRDGQRKSVSSSPWLPQDGFDPSDYAEPMDAVVKPRNEEENIYSVPHDSTQGKIITIRNINKAQSNGSGNGSDSEMDTSSLERGRKVSIVSKPVLYRTRCTRLGRFASYRTSFSVGSDDELGPIRKKEEDQASQGYKGDNAVIPYETDEDPRRRNILRSLRRNTKKPKPKPRPSITKATWESNYFGVPLTTVVTPEKPIPIFIERCIEYIEATGLSTEGIYRVSGNKSEMESLQRQFDQDHNLDLAEKDFTVNTVAGAMKSFFSELPDPLVPYNMQIDLVEAHKINDREQKLHALKEVLKKFPKENHEVFKYVISHLNKVSHNNKVNLMTSENLSICFWPTLMRPDFSTMDALTATRTYQTIIELFIQQCPFFFYNRPITEPPGARPSSPSAVASTVPFLTSTPVTSQPSPPQSPPPTPQSPMQPLLPSQLQAEHTL
For the molecule B1, the binding result in assay [1] and in assay [2] was “binds” each time.

B2: synectin-binding RhoA exchange factor (Syx) (protein, UniProt O94827 1-1006)
chain: MHYDGHVRFDLPPQGSVLARNVSTRSCPPRTSPAVDLEEEEEESSVDGKGDRKSTGLKLSKKKARRRHTDDPSKECFTLKFDLNVDIETEIVPAMKKKSLGEVLLPVFERKGIALGKVDIYLDQSNTPLSLTFEAYRFGGHYLRVKAPAKPGDEGKVEQGMKDSKSLSLPILRPAGTGPPALERVDAQSRRESLDILAPGRRRKNMSEFLGEASIPGQEPPTPSSCSLPSGSSGSTNTGDSWKNRAASRFSGFFSSGPSTSAFGREVDKMEQLEGKLHTYSLFGLPRLPRGLRFDHDSWEEEYDEDEDEDNACLRLEDSWRELIDGHEKLTRRQCHQQEAVWELLHTEASYIRKLRVIINLFLCCLLNLQESGLLCEVEAERLFSNIPEIAQLHRRLWASVMAPVLEKARRTRALLQPGDFLKGFKMFGSLFKPYIRYCMEEEGCMEYMRGLLRDNDLFRAYITWAEKHPQCQRLKLSDMLAKPHQRLTKYPLLLKSVLRKTEEPRAKEAVVAMIGSVERFIHHVNACMRQRQERQRLAAVVSRIDAYEVVESSSDEVDKLLKEFLHLDLTAPIPGASPEETRQLLLEGSLRMKEGKDSKMDVYCFLFTDLLLVTKAVKKAERTRVIRPPLLVDKIVCRELRDPGSFLLIYLNEFHSAVGAYTFQASGQALCRGWVDTIYNAQNQLQQLRAQEPPGSQQPLQSLEEEEDEQEEEEEEEEEEEEGEDSGTSAASSPTIMRKSSGSPDSQHCASDGSTETLAMVVVEPGDTLSSPEFDSGPFSSQSDETSLSTTASSATPTSELLPLGPVDGRSCSMDSAYGTLSPTSLQDFVAPGPMAELVPRAPESPRVPSPPPSPRLRRRTPVQLLSCPPHLLKSKSEASLLQLLAGAGTHGTPSAPSRSLSELCLAVPAPGIRTQGSPQEAGPSWDCRGAPSPGSGPGLVGCLAGEPAGSHRKRCGDLPSGASPRVQPEPPPGVSAQHRKLTLAQLYRIRTTLLLNSTLTASEV
Take B2: the binding entry in assay [1] and in assay [2] was “binds” in each case.
